The test addresses T1, 2-oxoglutarate dehydrogenase complex subunit E1o (OGDH), mouse (mouse (endogenous in mouse heart mitochondria)), Q60597.
T1 chain: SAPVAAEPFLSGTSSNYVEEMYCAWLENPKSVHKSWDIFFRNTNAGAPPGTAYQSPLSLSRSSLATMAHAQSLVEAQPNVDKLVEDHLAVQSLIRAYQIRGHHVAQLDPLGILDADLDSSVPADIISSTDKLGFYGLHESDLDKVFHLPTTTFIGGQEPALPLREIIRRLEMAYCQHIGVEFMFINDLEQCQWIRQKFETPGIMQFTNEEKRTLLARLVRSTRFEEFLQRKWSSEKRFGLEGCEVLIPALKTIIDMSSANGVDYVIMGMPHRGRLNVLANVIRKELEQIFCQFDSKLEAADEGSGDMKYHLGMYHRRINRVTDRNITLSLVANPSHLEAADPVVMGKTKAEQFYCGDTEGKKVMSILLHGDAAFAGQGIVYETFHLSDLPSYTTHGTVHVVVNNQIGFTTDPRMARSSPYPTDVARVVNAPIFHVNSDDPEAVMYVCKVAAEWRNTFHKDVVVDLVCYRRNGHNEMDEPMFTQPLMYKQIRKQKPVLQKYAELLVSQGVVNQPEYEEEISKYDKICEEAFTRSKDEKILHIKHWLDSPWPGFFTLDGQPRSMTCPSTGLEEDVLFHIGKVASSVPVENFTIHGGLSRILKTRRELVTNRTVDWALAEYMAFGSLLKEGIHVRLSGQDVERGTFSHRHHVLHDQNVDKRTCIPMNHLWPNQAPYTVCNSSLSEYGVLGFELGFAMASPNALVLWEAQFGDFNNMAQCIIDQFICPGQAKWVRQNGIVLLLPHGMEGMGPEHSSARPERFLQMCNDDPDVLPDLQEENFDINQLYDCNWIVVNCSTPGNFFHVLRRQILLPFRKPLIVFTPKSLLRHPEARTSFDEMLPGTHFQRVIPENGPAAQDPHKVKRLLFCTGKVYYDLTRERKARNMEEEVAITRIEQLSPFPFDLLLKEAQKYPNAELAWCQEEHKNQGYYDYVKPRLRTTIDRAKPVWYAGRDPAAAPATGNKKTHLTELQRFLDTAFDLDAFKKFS
Description: cross-linking. To be noted: remark: other sources report otherwise.

Results are given in words; binding and its absence hold for the method and conditions named. In cells and extracts the contact can be indirect.

B1: MRPS36 (KGD4), mouse, Q9CQX8 1-102 (protein)
chain: MGSKMASATRVVQVVKPHAPLIKFPNRRDKPKLSASEALGSAALPSHSSAISQHSKGSTSPDLLMHQGPPDTAEIIKSLPQKYRRKPMSQEEMEFIQRGGPE
In the case of B1, the binding result is given as “no binding”.

For the origin of these results see publication doi:10.1101/2022.10.08.511390.
